# Assay results taken from publication PMC11658772.
# Results are given in words; binding and its absence hold for the method and conditions named. In cells and extracts the contact can be indirect. Some binding calls cover weakened binding; strength is not graded here. Sequences can lack the tags named with a protein.
# T1: MSL1^WT-3xHA (Drosophila melanogaster) (UniProt P50535)
# T1 sequence: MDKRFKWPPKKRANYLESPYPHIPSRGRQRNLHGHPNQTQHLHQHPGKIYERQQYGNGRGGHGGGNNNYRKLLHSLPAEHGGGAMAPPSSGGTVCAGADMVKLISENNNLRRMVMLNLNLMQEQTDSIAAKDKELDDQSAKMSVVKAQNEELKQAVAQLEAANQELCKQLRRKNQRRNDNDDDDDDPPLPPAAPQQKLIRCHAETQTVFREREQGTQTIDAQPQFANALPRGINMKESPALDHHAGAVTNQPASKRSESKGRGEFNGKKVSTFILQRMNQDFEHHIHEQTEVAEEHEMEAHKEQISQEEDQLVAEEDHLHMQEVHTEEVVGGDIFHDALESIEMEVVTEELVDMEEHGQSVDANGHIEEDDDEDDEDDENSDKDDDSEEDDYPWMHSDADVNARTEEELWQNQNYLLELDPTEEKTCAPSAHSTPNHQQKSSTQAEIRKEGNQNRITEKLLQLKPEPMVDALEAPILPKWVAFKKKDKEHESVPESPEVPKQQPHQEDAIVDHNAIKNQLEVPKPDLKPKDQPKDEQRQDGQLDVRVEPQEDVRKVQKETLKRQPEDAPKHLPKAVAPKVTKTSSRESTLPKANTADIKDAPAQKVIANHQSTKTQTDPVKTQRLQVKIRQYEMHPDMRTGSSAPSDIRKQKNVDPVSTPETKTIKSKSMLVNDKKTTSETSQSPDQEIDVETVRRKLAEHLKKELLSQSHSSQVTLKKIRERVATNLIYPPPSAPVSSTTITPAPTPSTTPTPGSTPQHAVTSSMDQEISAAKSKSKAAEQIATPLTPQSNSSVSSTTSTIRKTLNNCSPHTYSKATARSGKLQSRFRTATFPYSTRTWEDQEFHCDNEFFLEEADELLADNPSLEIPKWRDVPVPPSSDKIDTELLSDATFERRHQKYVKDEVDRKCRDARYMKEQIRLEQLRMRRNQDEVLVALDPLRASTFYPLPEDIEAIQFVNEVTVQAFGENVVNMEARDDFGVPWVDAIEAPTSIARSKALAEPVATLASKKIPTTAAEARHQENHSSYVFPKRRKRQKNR
# T2: MSL1^Δ41-85-3xHA (Drosophila melanogaster) (UniProt P50535)
# T2 sequence: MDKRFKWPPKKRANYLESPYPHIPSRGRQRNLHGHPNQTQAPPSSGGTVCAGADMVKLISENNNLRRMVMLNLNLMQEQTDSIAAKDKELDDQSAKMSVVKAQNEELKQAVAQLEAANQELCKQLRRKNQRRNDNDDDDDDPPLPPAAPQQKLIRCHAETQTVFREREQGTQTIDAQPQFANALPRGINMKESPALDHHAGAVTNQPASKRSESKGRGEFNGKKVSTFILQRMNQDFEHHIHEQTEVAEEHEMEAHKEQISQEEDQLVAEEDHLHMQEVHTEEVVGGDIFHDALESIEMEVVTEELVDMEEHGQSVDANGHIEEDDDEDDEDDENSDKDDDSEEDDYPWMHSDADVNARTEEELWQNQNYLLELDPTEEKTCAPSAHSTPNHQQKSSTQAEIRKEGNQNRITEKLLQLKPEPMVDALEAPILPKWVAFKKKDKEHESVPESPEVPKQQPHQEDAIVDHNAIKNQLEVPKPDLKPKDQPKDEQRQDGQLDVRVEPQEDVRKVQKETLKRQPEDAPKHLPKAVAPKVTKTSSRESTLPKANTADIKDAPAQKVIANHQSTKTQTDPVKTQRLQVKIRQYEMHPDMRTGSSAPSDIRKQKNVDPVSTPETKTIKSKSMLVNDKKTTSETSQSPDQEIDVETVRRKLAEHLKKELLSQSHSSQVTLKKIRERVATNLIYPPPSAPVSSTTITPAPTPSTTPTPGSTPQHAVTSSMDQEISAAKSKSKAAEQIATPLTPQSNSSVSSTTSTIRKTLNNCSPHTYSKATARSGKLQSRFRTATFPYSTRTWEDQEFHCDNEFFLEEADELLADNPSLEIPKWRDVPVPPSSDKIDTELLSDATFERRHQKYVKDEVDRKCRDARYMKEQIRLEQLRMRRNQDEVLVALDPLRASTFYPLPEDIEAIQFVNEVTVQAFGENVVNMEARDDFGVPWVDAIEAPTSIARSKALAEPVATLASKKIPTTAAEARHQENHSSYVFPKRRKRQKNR
# Legend:
# [1] = biological target: T1, MSL1^WT-3xHA (Drosophila melanogaster); assay: co-IP; Drosophila S2 cells co-transfected with MSL1*-3xHA and MSL2-3xFLAG, 48 hr; extract made with 420 mM NaCl; immunoprecipitation with anti-FLAG, anti-HA or mouse IgG (negative control) magnetic beads in buffer-150 (20 mM Tris-HCl pH 7.4, 150 mM NaCl, 10 mM MgCl2, 0.1% NP-40), overnight at 4 °C; immunoblot with anti-FLAG-HRP
# [2] = biological target: T2, MSL1^Δ41-85-3xHA (Drosophila melanogaster); assay: as above
binder,measurement,setting,value
"MSL2-3xFLAG (protein, UniProt P50534 1-773) MAQTAYLKVTRIAMRSASNLSKRRVEELNSGLGELRQLLSCVVCCQLLVDPYSPKGKRCQHNVCRLCLRGKKHLFPSCTQCEGCSDFKTYEENRMMAAQLLCYKTLCVHLLHSALFGELAGMRPQVARELVPRIKLPPKTTQEFIREGSNISDTFDIFLPQPDLPFLKDMPTSLPAETPPTSAVTTPELPYDHHLNISDIEAEAAATAEQGHFSPLPLLPTGSRMGMLSHAGQIVIATESSESGFMDQAWTDQVDLSGTVSVSKYTNSGNNFAVSYVMPTSATTKFDPQELQIGQVVQMADSTQLAVLAAVEETVETSTQLTVLSTTVEETVETSTQLEVLTSAEEPNEISDQLANLQVEESDEALVEETVEEAEGTSIPSEVVAEHMEEDQHLDVHTSQSPTQTEMEEAVEEHVATKTQLGHVQTELQDAESLQKDFEDAKAAAEEAKEKEKDLHAISAELQKEDSDEPTLKRKRTRTLKASQAAKIEPVPSEVKTKVQSGKGALRRIRGKDKEEKVKPPKPKCRCGISGSSNTLTTCRNSRCPCYKSYNSCAGCHCVCCKNPHKEDYVESDEDDDLEDFEMPKDVPEPMTQSEEPVVAEPRQEENSMAPPDSSAPISLVPLNNLQQSQHPLVLVQNEKGEYQGFNIFQGSKPLDPVTVGFTIRVQLQHTDGFGSLPQYAYIMPTIDPPNPPAPSLSPPPPPAPDREVIEPPAKKFRTSRTRRGRANFSALDTVDELVSGGSRSNSAAGDRSSATDNAHSLFEEIMSGSDDL",binding,[1],binds
same,binding,[2],binds
